The target of assay [1] is T1, eukaryotic translation initiation factor 4G1 fused to GST (eIF4G1-GST) (yeast), P39935.
T1 chain: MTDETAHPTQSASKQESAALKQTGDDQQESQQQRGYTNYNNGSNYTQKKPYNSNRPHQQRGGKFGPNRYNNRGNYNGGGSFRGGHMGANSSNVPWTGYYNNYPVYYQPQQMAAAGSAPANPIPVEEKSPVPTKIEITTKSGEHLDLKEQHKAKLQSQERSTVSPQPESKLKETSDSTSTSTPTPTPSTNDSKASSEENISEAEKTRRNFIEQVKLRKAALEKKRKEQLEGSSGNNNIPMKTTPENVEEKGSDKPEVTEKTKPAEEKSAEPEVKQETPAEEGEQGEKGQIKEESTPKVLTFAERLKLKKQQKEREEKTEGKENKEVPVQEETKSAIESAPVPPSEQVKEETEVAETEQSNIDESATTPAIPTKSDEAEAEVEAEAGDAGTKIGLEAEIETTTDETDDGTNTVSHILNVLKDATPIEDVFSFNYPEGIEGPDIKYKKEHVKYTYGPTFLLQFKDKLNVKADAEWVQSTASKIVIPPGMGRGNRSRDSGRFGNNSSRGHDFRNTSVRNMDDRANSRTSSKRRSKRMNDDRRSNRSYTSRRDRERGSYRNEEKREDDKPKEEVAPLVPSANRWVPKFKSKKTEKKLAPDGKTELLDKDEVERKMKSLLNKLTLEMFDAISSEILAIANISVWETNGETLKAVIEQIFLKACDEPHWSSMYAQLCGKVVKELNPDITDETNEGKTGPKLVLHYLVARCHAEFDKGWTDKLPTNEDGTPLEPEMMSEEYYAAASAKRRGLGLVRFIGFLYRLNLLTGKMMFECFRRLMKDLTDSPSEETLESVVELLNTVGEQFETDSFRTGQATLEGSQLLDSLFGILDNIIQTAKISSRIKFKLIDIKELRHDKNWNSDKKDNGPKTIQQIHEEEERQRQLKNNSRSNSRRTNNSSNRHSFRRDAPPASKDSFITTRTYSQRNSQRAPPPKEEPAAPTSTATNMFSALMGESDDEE
Briefly: pull-down; 100 picomoles of purified GST or eIF4G1-GST added to lysate of yeast overexpressing Sbp1 or mutants (galactose induction 6 h in wild type, 5 h for Δhmt1); glutathione beads; 50 mM HEPES pH 7.5, 100 mM NaCl, 1% Triton X, 2 mM MgCl2, 2 mM MnCl2, RNase A 1 mg/mL, 1 mM DTT, BSA 10 mg/mL; 4 °C, 30 min; Sbp1 detected with PAP reagent; only the target purified. To be noted: remark: other sources report otherwise.

Assay [2] concerns the target T1, eukaryotic translation initiation …. Briefly: pull-down; 100 pm of eIF4G1-GST and GST, 20 pm of purified Sbp1 (methylated or unmethylated); glutathione beads; same binding and wash buffer as the lysate assay; binding for 2 h; both purified. To be noted: remark: other sources report otherwise.

Results are given in words; binding and its absence hold for the method and conditions named. For some assays here: Binding seen in cells or lysates may run through a third protein. Some entries that bind do so weakly or less than the wild type. Sequences can lack the tags named with a protein.

B1: Sbp1, wild-type sequence, galactose-inducible with ZZ (protein A) tag, overexpressed in the Δhmt1 strain, P10080 1-294 (protein)
chain: MSAEIEEATNAVNNLSINDSEQQPRAPTHKTVIDPEDTIFIGNVAHECTEDDLKQLFVEEFGDEVSVEIPIKEHTDGHIPASKHALVKFPTKIDFDNIKENYDTKVVKDREIHIKRARTPGQMQRGGFRGRGGFRGRGGFRGGFRGGYRGGFRGRGNFRGRGGARGGFNGQKREKIPLDQMERSKDTLYINNVPFKATKEEVAEFFGTDADSISLPMRKMRDQHTGRIFTSDSANRGMAFVTFSGENVDIEAKAEEFKGKVFGDRELTVDVAVIRPENDEEEIEQETGSEEKQE
On to B1, for which, in assay [1], the binding entry is “binds”.

B2: His-Sbp1-FLAG, recombinant, unmethylated, P10080 1-294 (protein)
chain: MSAEIEEATNAVNNLSINDSEQQPRAPTHKTVIDPEDTIFIGNVAHECTEDDLKQLFVEEFGDEVSVEIPIKEHTDGHIPASKHALVKFPTKIDFDNIKENYDTKVVKDREIHIKRARTPGQMQRGGFRGRGGFRGRGGFRGGFRGGYRGGFRGRGNFRGRGGARGGFNGQKREKIPLDQMERSKDTLYINNVPFKATKEEVAEFFGTDADSISLPMRKMRDQHTGRIFTSDSANRGMAFVTFSGENVDIEAKAEEFKGKVFGDRELTVDVAVIRPENDEEEIEQETGSEEKQE
Turning to B2, the binding result in assay [2] is given as “binds”.

Source of the values: paper PMC6916386.
